The campaign covered roughly 2,000 compounds. About 190 (9.5%) were called active. Inconclusive results (about 14%) are left out.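 The calls were made as follows: active = fitted activation curve crossing 40% at a concentration no higher than the sample's top valid tested dose; inconclusive = flat fitted curve at 30% to 70% activation, or poor curve fit; inactive = signal decrease, flat curve within 30%, or the rest.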 The list lacks most of the strong results.
assay: sustained heat shock response element induction – cell-based, mouse, luciferase, cherry-pick, dose, confirmation (AID 602296); settings: NIH3T3-HGL HSF-1 response element luciferase, 48 h; at 26 µM (top of the series) unless noted;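 also: test compounds applied by themselves with no MG132 co-treatment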

activation, inactive:
NC(=O)c1ccc(NC(=O)CC23CC4CC(CC(Br)(C4)C2)C3)cc1 2.54%
CC1(C)Cc2c(C#N)c(N3CCCC3)nc(-c3ccco3)c2CO1 -13%
Brc1ccc2c(c1)C(c1cccnc1)=NNC(c1cccs1)=N2 -23.4%
O=C1CCN(C(=O)Nc2ccccc2Cl)N1 4.56%
Cc1ccc(C)c(NC(=O)C2CC(O)CN2C(=O)Oc2ccccc2)c1 (centres undefined) -6.42%
O=[N+]([O-])/C=C/c1ccc2c(ccn2Cc2ccccc2)c1 -103%
Cc1ccccc1NC(=O)CSc1nc(Nc2ccccc2)nc(N2CCOCC2)n1 -24.3%
Cc1ccc2oc(C(Cl)(Cl)Cl)cc(=O)c2c1 -33.6%
Cc1ccc(O)c(NC(=O)COc2cc(C)ccc2C)c1 -33.9%
CCOC(=O)CC(NS(=O)(=O)c1ccc2[nH]cc(C(=O)O)c(=O)c2c1)c1ccc(OCC)c(OC)c1 (centres undefined) 4.46%
CCOC(=O)c1c(C)[nH]c(C)c1S(=O)(=O)N1CCN(c2ccc(F)cc2)CC1 3.87%
CCCC(=O)NC(c1ccc(N(C)C)cc1)c1ccc2cccnc2c1O (centres undefined) -66.1%
COc1cc2[nH]c(=S)nc(NCc3ccc(Cl)cc3)c2cc1OC 3.41%
Cc1cccc(/C=C/C(=O)c2ccc([N+](=O)[O-])o2)c1 -100%
COc1cc(C(=O)Nc2ccc(S(=O)(=O)N3CCc4ccccc43)cc2)cc(OC)c1OC -48.5%
C=CCn1c(C)cc(C(=O)CSc2nc(N)cc(N)n2)c1C -3.17%
CC(C)C(C)N(Cc1ccc(C(=O)O)cc1)C(=O)c1ccc2ccccc2n1 (centres undefined) -7.06%
O=C(CCl)N1CCN2C(=O)c3ccccc3C12c1ccc(Cl)cc1 (centres undefined) 6.48%
Cc1ccc(C)c(Cn2nnc3c(=O)[nH]c(C4CCN(C(=O)c5cccs5)CC4)nc32)c1 -16.5%
Cc1c(N(C)S(=O)(=O)c2cccc(C(=O)NC(C)C)c2)c(=O)n(-c2ccccc2)n1C -8.73%
CC(C)c1ccc(/C=C/C(=O)n2nnc3ccccc32)cc1 -18%
COc1cc(COCC(O)CN2CCN(CCN3C(=O)c4cccc5cccc(c45)C3=O)CC2)cc(OC)c1OC (centres undefined) -6.7%
O=C(O)c1cnn(-c2nc(-c3cccc([N+](=O)[O-])c3)cs2)c1C(F)(F)F -9.3%
Nn1c(SCC(=O)N2CCOCC2)nnc1C1CC1 -5.21%
Nc1ccccc1Nc1ccc([N+](=O)[O-])cc1[N+](=O)[O-] -1.13%
Cc1c(-c2n[nH]c(=S)n2-c2ccc(C(F)(F)F)cc2)nnn1-c1ccccc1 -5.63%
COc1ccc(-c2nc(Cn3c(SCc4ccc(F)cc4)nc4ccncc43)c(C)o2)cc1OC -16.8%
O=C1C2CCCCC2C(=O)N1Cc1ccccc1 (centres undefined) -6.54%
N#Cc1ccc(-c2ccc(Cl)cc2)nc1Oc1ccc(F)cc1 -3.7%
O=C(Nc1ccc(S(=O)(=O)N2CCCCC2)cc1)C1CCN(C(=O)c2ccco2)CC1 2.98%
CCCc1nc2oc3cc(OC)ccc3c(=O)c2c(=O)n1CCc1ccccc1 -10.3%
CCOC(=O)C1CCCN(CC(=O)Nc2c(C(=O)OC)[nH]c3ccccc23)C1 (centres undefined) 0.175%
O=c1oc2cc(O)ccc2cc1S(=O)(=O)c1ccccc1 6.11%
COc1ccccc1CNC(=O)c1csc(Cc2ccc(Cl)cc2)n1 -43.2%
COc1ccc(S(=O)(=O)Nc2cc3c4c(oc3c3ccccc23)CCCC4=O)cc1 -49%
Cc1ccc(S(=O)(=O)NNC(=O)c2cnn(-c3ccc(Cl)cc3)c2C(F)(F)F)cc1 -9.84%
CNC(=O)N(O)C1N(/N=C/c2c(F)cccc2Cl)C(=S)SC1(C)C (centres undefined) -5.57%
COC(=O)C1=CN(c2ccc(F)cc2)C=C(C(=O)OC)C1c1cccc(Br)c1 -34.7%
COc1ccc(/C(C)=N/NC(=S)NCc2ccco2)cc1 -18.9%
Cc1c(-n2cc(C(=O)c3ccccc3O)cc(C#N)c2=O)c(=O)n(-c2ccccc2)n1C 11.6%
Cc1cc(=O)c2n(Cc3ccccc3Cl)nc[n+]2[nH]1 -3.29%
O=C(Nc1ccc(OCC(F)(F)C(F)F)c(C(F)(F)F)c1)c1ccccc1O -78.6%
Cc1ccc[n+](CC(=O)Nc2ccc([N+](=O)[O-])cc2Cl)c1 -4.44%
Cc1ccc(C(=O)CSc2nnnn2C(C)C)c(C)c1 -94.9%
CCN(CCO)c1nc(SC)nc2c1sc1nc(-c3ccco3)c3c(c12)CCC3 -28.5%
CSc1cc(-c2ccco2)oc1C(=O)c1ccco1 10.5%
CCCCOC(=O)CCc1c(C)n[nH]c1C 14.6%
CN1CCN(Cc2c(O)ccc3cc(Br)ccc23)CC1 23.8%
S=c1[nH]nc(-c2cc(-c3ccccc3)n[nH]2)n1/N=C/C(Br)=C/c1ccccc1 -108%
Cc1ccc(NC(=O)COC(=O)/C=C/c2ccc(Br)o2)cc1S(=O)(=O)N(C)C -28.6%
COc1ccc(-c2cc(CCCC(=O)NCCc3ccc(OC)cc3OC)no2)cc1 -34.9%
Cc1cc(C)c2c(NC(=O)C3CC3)nn(C)c2n1 9.49%
COc1ccc2c(c1)CCc1c(C(=O)N3CC4(C)CC3CC(C)(C)C4)noc1-2 (centres undefined) -49.6%
CCOC(=S)SCC(=O)N1CCc2cc(OC)c(OC)cc2C1C1C(=O)CC(C)(C)CC1=O (centres undefined) 5.12%
Cc1cc(=O)[nH]c(N/N=C/c2ccc(O)c(O)c2)n1 2.3%
CCC1CSC(Nc2ccc(C(=O)/C=C/c3cccc(C)c3)cc2)=N1 (centres undefined) -95.4%
COc1ccc(NC(=O)C2CC(=O)NC(Nc3cccc(C)c3)=N2)cc1 (centres undefined) -11.4%
CC1=C(/C=C/C(=O)O)C(C)(C)CCC1 9.15% [at 12 µM]
N#CC(CO)(Cc1ccc(OC(F)F)cc1)c1nc2ccccc2[nH]1 (centres undefined) -6.74%
COc1ccc(C(=O)Cn2c(C)nc([N+](=O)[O-])c2Br)cc1 -95%
CCC(C)C(=O)Nc1ncc2c(n1)CC(c1cccs1)CC2=O (centres undefined) 0.061%
CCCc1[nH]nc2c1C(c1cc(OC)ccc1F)C(C#N)=C(N)O2 (centres undefined) -18.2%
O=C(C[n+]1cccc(C(=O)Nc2ccccc2)c1)c1ccc([N+](=O)[O-])cc1 -7.73%
CCN(Cc1ccccc1)S(=O)(=O)c1cc(C(=O)NCC2CCCCC2)ccc1OC -52.4%
O=C(CC1C=Cc2ccccc2N1C(=O)c1ccccc1)c1ccccc1 (centres undefined) -23%
O=C1CN(C(=O)c2ccc(Br)o2)C(c2ccc(F)cc2)c2cc(Cl)ccc2N1 (centres undefined) -32.9%
Cc1ccccc1Cn1nc(C)c(NC(=O)C2c3ccccc3Oc3ccccc32)c1C -7.67%
Cc1cc(=O)oc2c(C)c(OC(C)C(=O)NCC(O)c3ccccc3)ccc12 (centres undefined) 13.6%
CN1CCN(C(=O)c2ccc(Cn3cc(Cl)cn3)o2)CC1 -5.24%
COc1cc(NC(=S)NC(C)(C)C)c(OC)cc1Cl 6.75%
FC(F)(F)c1cnc(Sc2nc3nccc(-c4ccc(Cl)cc4)n3n2)c(Cl)c1 -82.3%
CCOc1ccc(C)cc1S(=O)(=O)NC1CCCCC1 -5.73%
O=C(NCc1nnc(SCc2ccccc2)n1-c1ccccc1)C12CC3CC(CC(C3)C1)C2 -21.2%
CCC(=NCc1ccc(Cl)c(Cl)c1)c1nc(-c2ccco2)oc1O -69.1%
CN1c2ccccc2C(O)=C(C(=S)Nc2ccc(Cl)cc2)S1(=O)=O -26.5%
CN1C(=O)C2(c3ccccc31)N(C)CC(c1ccccn1)C21SC(=S)N(Cc2ccco2)C1=O (centres undefined) -66.3%
COc1ccc(-c2cn[nH]c2-c2ccc(OCc3ccc([N+](=O)[O-])cc3)cc2O)cc1OC -39.6%
CC1=CC(C)(C)NC(=S)N1c1cccc(C)c1 -12.8%
CCN(CC)S(=O)(=O)c1ccc(C)c(NC(=S)Nc2cccc(S(=O)(=O)N3CCCCCC3)c2)c1 -53.3%
CCn1c2ccccc2c2cc(NC(=O)CSc3nnc(-c4cccc(OC)c4)n3N)ccc21 -37.1%
Cc1nc(Sc2ccc(Br)cc2)c(C#N)c(C)c1[N+](=O)[O-] -87.9%
COC(=O)C1C(=O)C2=C(CC1C)NC(C)=C(C(=O)OCc1ccc(OC)cc1)C2c1ccc(C)o1 (centres undefined) -8.89%
Cc1ccn2c(C(=O)N/N=C\c3ccccc3[N+](=O)[O-])c(C)nc2c1 4.21%
N#CCC(=O)Nc1ccc(C(=O)OCC(=O)Nc2ccccc2Sc2ccccc2)cc1 -9.43%
COc1ccc(N(CC(=O)NCCC2=CCCCC2)S(=O)(=O)c2ccccc2)cc1 -11.1%
CC(C)(C)NC(=O)c1ccc2c3c(cccc13)CC2 4.29%
CC(=O)NCCC(=O)Nc1nc(-c2cccs2)c(-c2cccs2)s1 9.96%
CC(=O)n1c2c(c3ccccc31)OC(N)=C(C#N)C2c1cccc(Cl)c1Cl (centres undefined) 7.42%
COc1cc(C2NC(=O)NC(C)=C2C(=O)OC2CCCCC2)cc(Cl)c1O (centres undefined) -9.39%

Two successive compounds already listed:
activation, inactive:
CN1CCN(C(=O)c2ccc(Cn3cc(Cl)cn3)o2)CC1 -5.24%
COc1cc(NC(=S)NC(C)(C)C)c(OC)cc1Cl 6.75%

Among those listed so far, these contain a tert-butyl group.
activation, inactive:
COc1cc(NC(=S)NC(C)(C)C)c(OC)cc1Cl 6.75%
CC(C)(C)NC(=O)c1ccc2c3c(cccc13)CC2 4.29%

Reference: PubChem BioAssay AID602296 (Broad Institute, 2012)
